Measured values published in paper PMC10721474 (Plant Communications, 2023).

Chains of the proteins cited; added tags and fusions are not shown. Lines headed by an entry give the natural chain unless they say otherwise; changes in a name come on top.
UniProt Q9FFD0: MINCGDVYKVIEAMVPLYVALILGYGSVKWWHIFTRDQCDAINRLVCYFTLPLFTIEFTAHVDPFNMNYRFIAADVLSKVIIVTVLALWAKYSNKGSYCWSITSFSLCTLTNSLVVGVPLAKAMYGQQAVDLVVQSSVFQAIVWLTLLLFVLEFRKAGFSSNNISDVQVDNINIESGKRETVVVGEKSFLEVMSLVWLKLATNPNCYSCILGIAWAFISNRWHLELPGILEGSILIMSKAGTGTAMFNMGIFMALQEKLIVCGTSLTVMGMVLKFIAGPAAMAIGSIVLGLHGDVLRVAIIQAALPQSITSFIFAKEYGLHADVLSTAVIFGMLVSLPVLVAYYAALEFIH
UniProt Q9LFP6: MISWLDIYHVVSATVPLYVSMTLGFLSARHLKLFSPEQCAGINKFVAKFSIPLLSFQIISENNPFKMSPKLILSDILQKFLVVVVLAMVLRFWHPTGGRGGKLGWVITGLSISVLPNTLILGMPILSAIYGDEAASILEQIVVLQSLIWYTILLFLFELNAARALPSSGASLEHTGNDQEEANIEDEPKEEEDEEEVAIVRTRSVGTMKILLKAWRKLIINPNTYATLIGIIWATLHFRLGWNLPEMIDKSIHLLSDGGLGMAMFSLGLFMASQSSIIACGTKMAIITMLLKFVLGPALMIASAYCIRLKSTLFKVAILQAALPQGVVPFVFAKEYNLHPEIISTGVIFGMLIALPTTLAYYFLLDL
UniProt Q9LU77: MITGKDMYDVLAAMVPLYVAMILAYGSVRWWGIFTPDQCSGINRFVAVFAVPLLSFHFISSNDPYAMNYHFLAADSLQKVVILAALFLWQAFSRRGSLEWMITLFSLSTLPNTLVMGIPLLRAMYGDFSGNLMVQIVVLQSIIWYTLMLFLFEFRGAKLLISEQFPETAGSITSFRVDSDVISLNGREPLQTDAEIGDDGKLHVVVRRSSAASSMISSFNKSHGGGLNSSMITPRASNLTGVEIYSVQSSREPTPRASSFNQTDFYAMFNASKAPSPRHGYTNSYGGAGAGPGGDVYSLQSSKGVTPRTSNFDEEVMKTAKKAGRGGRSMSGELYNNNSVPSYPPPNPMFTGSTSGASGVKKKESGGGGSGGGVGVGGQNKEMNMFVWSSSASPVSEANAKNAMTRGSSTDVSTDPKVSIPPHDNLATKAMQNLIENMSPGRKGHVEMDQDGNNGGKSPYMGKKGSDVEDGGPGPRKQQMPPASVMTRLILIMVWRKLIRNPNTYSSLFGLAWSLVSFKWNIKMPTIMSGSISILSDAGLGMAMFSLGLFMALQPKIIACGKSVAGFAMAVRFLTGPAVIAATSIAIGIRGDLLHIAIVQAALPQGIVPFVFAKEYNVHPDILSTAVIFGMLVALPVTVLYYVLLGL
UniProt Q9C6B8: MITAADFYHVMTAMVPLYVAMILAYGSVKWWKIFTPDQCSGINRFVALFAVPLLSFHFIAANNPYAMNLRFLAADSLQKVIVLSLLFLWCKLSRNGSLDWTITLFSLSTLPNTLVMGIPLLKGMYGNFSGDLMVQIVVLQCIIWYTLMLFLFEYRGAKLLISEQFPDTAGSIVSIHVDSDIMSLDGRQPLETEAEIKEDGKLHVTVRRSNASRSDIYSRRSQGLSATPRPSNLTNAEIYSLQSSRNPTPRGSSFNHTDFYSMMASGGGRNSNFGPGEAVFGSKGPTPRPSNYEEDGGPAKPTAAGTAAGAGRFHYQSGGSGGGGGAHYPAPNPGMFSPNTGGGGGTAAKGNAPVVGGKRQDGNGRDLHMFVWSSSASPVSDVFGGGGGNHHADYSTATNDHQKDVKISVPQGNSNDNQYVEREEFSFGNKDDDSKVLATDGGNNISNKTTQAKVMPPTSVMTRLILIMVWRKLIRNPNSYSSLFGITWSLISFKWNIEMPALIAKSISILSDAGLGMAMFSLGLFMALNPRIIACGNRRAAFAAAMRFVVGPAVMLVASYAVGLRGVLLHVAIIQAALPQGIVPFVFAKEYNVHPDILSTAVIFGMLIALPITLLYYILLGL

How the values were obtained:
PIN5 = PIN5 (Arabidopsis thaliana, UniProt Q9FFD0)
PIN8 = PIN8 (Arabidopsis thaliana, UniProt Q9LFP6)
PIN2 = PIN2 (Arabidopsis thaliana, UniProt Q9LU77)
PIN1 = PIN1 (Arabidopsis thaliana, UniProt Q9C6B8); experiment: biochemical

Kd (PIN1): ~12.4 µM
SMILES: COc1ccc2cc([C@H](C)C(=O)O)ccc2c1 [naproxen, (S)-(+)-6-methoxy-α-methyl-2-naphthaleneacetic acid]
Kd (PIN5): SPR assays suggest that naproxen also binds to PIN5 and PIN8 proteins | Kd (PIN8): SPR assays suggest that naproxen also binds to PIN5 and PIN8 proteins | Kd (PIN2): naproxen bound to all PINs examined with KD values similar to that of naproxen–PIN1
